PubChem BioAssay AID602196, INSERM – 2012
Here is a random part of about 23,000 deposited reagents. 455 of them (2%) were called active. 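Active includes both protection and sensitisation; some change values fall well beyond the stated -50 to +50 range.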 A number with no mark means an inactive call. Further read-outs or replicates are left out here. Not given: the amount of reagent.

Purpose: 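Modifiers of cisplatin sensitivity in A549 cells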
System: human A549 lung cancer cells
Knock-down reagent: siRNA pair against human genes
Duration: 48 h transfection before cisplatin; time from cisplatin to read-out not stated
Challenge: cisplatin at a dose killing half of control-siRNA cells; exact dose and duration not given
Read-out: 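Shift in cisplatin death relative to control siRNA, from -50 (all cells die) to +50 (no cells die); siRNAs harmful on their own scored 0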
Direction: two-siRNA summed score (-2 to +2): higher = both siRNAs protect from cisplatin killing; -2 means both sensitise
Hit rule: 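Each siRNA scores 0 if harmful alone by LDH or WST-1, otherwise +1 if it reduces and -1 if it increases cisplatin killing; a gene is active when both siRNAs agree (sum +2 or -2)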
Calls: active = both siRNAs shift cisplatin killing the same way; inactive = no consistent shift, or siRNA harmful alone

| target gene | two-siRNA summed score (-2 to +2) |
| --- | --- |
| CASC22 (GeneID 283854) | 0 |
| FBXL13 (GeneID 222235) | -1 |
| LOC400299 | 0 |
| SSX1 (GeneID 6756) | 0 |
| EEFSEC (GeneID 60678) | 0 |
| SLBP (GeneID 7884) | 1 |
| LOC440924 | 0 |
| PHF2 (GeneID 5253) | 0 |
| UBE2F (GeneID 140739) | 1 |
| LOC387886 | 0 |
| NXPE4 (GeneID 54827) | 0 |
| BICRAL (GeneID 23506) | 0 |
| NUDT22 (GeneID 84304) | 0 |
| STAT5B (GeneID 6777) | 1 |
| FUT7 (GeneID 2529) | 0 |
| KDM3B (GeneID 51780) | 1 |
| EHBP1 (GeneID 23301) | 0 |
| ART3 (GeneID 419) | 0 |
| LOC389389 | 1 |
| AQP12A (GeneID 375318) | 0 |
| KIAA1671 (GeneID 85379) | 0 |
| CD1E (GeneID 913) | 0 |
| PDILT (GeneID 204474) | 0 |
| ZNF425 (GeneID 155054) | 0 |
| SPACA5 (GeneID 389852) | 0 |
| LOC441666 (GeneID 441666) | 1 |
| SERAC1 (GeneID 84947) | 1 |
| OR9G1 (GeneID 390174) | 1 |
| OR8I2 (GeneID 120586) | 0 |
| KRTAP6-2 (GeneID 337967) | -1 |
| LOC390278 | 0 |
| LOC389618 | 0 |
| CBFB (GeneID 865) | 0 |
| PHF3 (GeneID 23469) | 0 |
| OR4B1 (GeneID 119765) | 0 |
| LOC441260 | 0 |
| CDR2L (GeneID 30850) | 0 |
| ACTR2 (GeneID 10097) | 0 |
| HIGD1B (GeneID 51751) | 1 |
| NPW (GeneID 283869) | 0 |
| CCT8 (GeneID 10694) | -2 (active) |
| LOC152078 | 2 (active) |
| CFAP20 (GeneID 29105) | 0 |
| GPHN (GeneID 10243) | -1 |
| KRTAP13-1 (GeneID 140258) | 0 |
| UGCG (GeneID 7357) | 0 |
| WFDC13 (GeneID 164237) | 0 |
| B4GALT5 (GeneID 9334) | 0 |
| FFAR4 (GeneID 338557) | 0 |
| LOC389077 | 0 |
| SLC1A7 (GeneID 6512) | 1 |
| PHF11 (GeneID 51131) | 0 |
| LINC00473 (GeneID 90632) | 0 |
| DEFB129 (GeneID 140881) | 0 |
| RMC1 (GeneID 29919) | 0 |
| H2AC1 (GeneID 221613) | 1 |
| TAC1 (GeneID 6863) | 0 |

Laid out differently: results already given.
WFDC13 (GeneID 164237)
- two-siRNA summed score (-2 to +2): 0

B4GALT5 (GeneID 9334)
- two-siRNA summed score (-2 to +2): 0

FFAR4 (GeneID 338557)
- two-siRNA summed score (-2 to +2): 0

LOC389077
- two-siRNA summed score (-2 to +2): 0

SLC1A7 (GeneID 6512)
- two-siRNA summed score (-2 to +2): 1

PHF11 (GeneID 51131)
- two-siRNA summed score (-2 to +2): 0

LINC00473 (GeneID 90632)
- two-siRNA summed score (-2 to +2): 0
